Data as given in paper PMC7862700.
This is a selection; strong and weak results do not stand in their true shares. For part of these data: At the low end of the ranking the order means little.

Protein sequences, listed by entry. Tags and fused reporters are not part of them. Lines headed by an entry give the natural chain unless they say otherwise; changes in a name come on top.
UniProt O43186: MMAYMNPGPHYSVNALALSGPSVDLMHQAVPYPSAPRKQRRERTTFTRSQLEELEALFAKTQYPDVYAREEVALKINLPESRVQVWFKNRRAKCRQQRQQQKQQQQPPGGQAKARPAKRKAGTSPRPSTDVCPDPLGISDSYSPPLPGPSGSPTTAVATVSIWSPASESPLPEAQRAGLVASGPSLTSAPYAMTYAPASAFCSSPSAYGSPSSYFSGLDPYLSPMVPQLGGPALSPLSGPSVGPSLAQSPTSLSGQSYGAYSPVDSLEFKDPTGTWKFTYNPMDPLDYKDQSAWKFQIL

Biological target: T1, FEV (UniProt Q99581)
T1 sequence: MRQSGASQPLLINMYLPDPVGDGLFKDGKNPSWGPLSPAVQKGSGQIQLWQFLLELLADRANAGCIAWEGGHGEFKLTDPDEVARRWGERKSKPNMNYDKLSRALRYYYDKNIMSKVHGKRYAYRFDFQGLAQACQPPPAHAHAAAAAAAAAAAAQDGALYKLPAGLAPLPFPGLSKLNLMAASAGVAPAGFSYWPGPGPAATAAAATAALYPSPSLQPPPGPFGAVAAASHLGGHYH
Experiment: DAPPL (digital affinity profiling via proximity ligation, sequencing)
Conditions: 10 mM Tris-HCl pH 7.5, 50 mM NaCl, 1 mM DTT, 4% glycerol, room temperature, 30 min; GST-TFs on glutathione beads, 16-mer random dsDNA library, 0.1% …; high values mean tight binding; double strand, one strand shown; scale: fold enrichment (6-mer frequency, TF over GST control)

| Sequence | binding signal |
| --- | --- |
| TCTGTC | 1.13 |
| GAAGTT | 1.62 |
| GGTCCC | 1.1 |
| GAATCT | 1.03 |
| GGAACA | 1.01 |
| ATCTGT | 1.22 |

Biological target: CRX (UniProt O43186)
Experiment: as above
Conditions: 10 mM Tris-HCl pH 7.5, 50 mM NaCl, 1 mM DTT, 4% glycerol, room temperature, 30 min; GST-TFs on glutathione beads, 16-mer random dsDNA library, 0.1% …; high values mean tight binding; double strand, one strand shown; scale: fold enrichment (6-mer frequency, TF over GST control)

| Sequence | binding signal |
| --- | --- |
| TCTGTC | 0.995 |
| GAAGTT | 0.923 |
| GGTCCC | 0.818 |
| GAATCT | 1.21 |
| GGAACA | 0.774 |
| ATCTGT | 1.45 |

Biological target: T2, ELF5 (UniProt Q9UKW6-2)
T2 sequence: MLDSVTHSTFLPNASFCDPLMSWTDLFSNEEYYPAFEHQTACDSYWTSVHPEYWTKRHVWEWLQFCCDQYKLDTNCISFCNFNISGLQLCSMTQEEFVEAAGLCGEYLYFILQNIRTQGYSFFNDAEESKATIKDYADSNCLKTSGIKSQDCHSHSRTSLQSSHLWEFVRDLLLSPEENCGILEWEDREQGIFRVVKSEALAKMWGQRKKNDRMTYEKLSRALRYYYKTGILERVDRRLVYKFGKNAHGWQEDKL
Experiment: as above
Conditions: 10 mM Tris-HCl pH 7.5, 50 mM NaCl, 1 mM DTT, 4% glycerol, room temperature, 30 min; GST-TFs on glutathione beads, 16-mer random dsDNA library, 0.1% …; high values mean tight binding; double strand, one strand shown; scale: fold enrichment (6-mer frequency, TF over GST control)

| Sequence | binding signal |
| --- | --- |
| TAACCT | 1.29 |
| TTTTGA | 1 |
| AACTTA | 1.25 |
| TTTGCG | 1.16 |
| CCTGGA | 1.74 |
| TTGCGG | 1.24 |
| GCCTCC | 1.29 |
| TAATGA | 1.12 |
| ATCCAA | 1.11 |
| ATCGAA | 1.05 |
| ATCGTC | 1.07 |
| GATCTC | 1.21 |
| ATTGCC | 1.22 |
| TTTAGG | 0.984 |
| TCCCAC | 1.47 |
| TACTGC | 1.17 |
| ACTTAT | 1.38 |

14 entries from above, set out differently.
Sequence	binding signal
TTTGCG	1.16
CCTGGA	1.74
TTGCGG	1.24
GCCTCC	1.29
TAATGA	1.12
ATCCAA	1.11
ATCGAA	1.05
ATCGTC	1.07
GATCTC	1.21
ATTGCC	1.22
TTTAGG	0.984
TCCCAC	1.47
TACTGC	1.17
ACTTAT	1.38

Additional entries follow.

| Sequence | binding signal |
| --- | --- |
| CCCCCA | 1.24 |
| CTCTCA | 1.28 |
| TTCCCT | 2.49 |
| CTATAC | 1.26 |
| CTAACG | 1.12 |
| GAACTC | 1.32 |
| ACATCC | 3.25 |
| CCTGAT | 1.64 |
| GTTTAC | 1.13 |
| AAGTTT | 1.55 |
| CGAAAC | 1.12 |
| TCCCTT | 1.72 |
| CTGAGC | 0.908 |
| CTAAAC | 1.19 |
| ATGACT | 1.32 |
| GGCTAG | 0.998 |
